The target of this test is T1, DYN-1A tagged with FLAG (DYN-1-3xFLAG) (C. elegans) (UniProt P39055).
T1 sequence: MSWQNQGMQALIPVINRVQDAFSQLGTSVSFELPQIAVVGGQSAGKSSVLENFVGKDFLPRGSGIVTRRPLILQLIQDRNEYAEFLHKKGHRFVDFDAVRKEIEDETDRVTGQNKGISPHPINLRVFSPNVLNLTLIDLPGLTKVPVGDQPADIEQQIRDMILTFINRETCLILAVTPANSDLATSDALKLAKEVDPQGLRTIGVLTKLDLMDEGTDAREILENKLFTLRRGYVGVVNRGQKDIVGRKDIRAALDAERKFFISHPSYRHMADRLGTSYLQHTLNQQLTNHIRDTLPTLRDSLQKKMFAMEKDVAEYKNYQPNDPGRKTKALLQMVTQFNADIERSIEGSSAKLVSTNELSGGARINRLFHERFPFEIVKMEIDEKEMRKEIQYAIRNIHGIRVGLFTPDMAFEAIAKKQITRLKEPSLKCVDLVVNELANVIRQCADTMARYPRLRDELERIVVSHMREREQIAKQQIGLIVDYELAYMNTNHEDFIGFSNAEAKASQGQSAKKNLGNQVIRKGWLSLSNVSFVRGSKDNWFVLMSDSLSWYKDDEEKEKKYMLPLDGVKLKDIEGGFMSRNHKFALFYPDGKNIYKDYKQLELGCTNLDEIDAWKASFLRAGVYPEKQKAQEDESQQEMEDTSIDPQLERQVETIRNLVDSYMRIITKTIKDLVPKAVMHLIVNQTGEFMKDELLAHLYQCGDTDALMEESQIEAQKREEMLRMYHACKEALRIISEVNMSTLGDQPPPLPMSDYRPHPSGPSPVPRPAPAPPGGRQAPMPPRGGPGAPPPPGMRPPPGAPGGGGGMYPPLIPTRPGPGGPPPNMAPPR
The experiment in a line: co-IP; HEK293T cells transfected with DYN-1-3xFLAG and/or EFF-1A-eGFP; lysed in RIPA buffer 24 h after transfection; IP with anti-FLAG M2 agarose beads 3-4 h at 4°C, four washes with RIPA; immunoblot with anti-GFP; blot of one experiment.

Sequences of proteins named here, by UniProt entry; tags and fusion partners are left off. A change or cut given only in a name is not applied to a line headed by its entry.
UniProt G5ECA1: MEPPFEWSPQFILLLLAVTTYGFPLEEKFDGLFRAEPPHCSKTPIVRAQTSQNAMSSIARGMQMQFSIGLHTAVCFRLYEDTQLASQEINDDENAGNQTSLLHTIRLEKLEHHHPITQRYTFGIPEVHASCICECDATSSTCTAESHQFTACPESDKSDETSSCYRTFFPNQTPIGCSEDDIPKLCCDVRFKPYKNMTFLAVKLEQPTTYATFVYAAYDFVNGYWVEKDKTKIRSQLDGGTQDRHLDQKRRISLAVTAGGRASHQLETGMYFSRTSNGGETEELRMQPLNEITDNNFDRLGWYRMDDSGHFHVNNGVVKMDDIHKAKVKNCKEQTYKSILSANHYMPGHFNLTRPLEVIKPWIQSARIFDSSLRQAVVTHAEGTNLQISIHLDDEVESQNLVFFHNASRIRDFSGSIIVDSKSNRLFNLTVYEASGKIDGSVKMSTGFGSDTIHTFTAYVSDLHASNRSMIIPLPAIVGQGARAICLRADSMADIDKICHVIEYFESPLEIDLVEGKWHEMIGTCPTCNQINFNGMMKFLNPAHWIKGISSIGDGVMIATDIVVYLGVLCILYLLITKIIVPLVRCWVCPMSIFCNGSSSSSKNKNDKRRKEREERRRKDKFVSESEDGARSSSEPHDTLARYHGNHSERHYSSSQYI

Results are given in words; binding and its absence hold for the method and conditions named. In cells and extracts the contact can be indirect. A result given as binding can be weak or reduced; the word gives no strength. Where a sequence is shown, tags or fusion partners need not be part of it.

Regarding “EFF-1A tagged with GFP (EFF-1A-eGFP) (from UniProt G5ECA1)”, the binding entry is given as “binds”.

Values taken from PMC10167995.
